# Experimental data published in the supplement of paper PMC12067093, “Discovery and optimisation of a covalent ligand for TRIM25 and its application to targeted protein ubiquitination” (Chemical Science, 2025).
# Chains of the proteins cited; added tags and fusions are not shown. Lines headed by an entry give the natural chain unless they say otherwise; changes in a name come on top.
# UniProt A6NED2: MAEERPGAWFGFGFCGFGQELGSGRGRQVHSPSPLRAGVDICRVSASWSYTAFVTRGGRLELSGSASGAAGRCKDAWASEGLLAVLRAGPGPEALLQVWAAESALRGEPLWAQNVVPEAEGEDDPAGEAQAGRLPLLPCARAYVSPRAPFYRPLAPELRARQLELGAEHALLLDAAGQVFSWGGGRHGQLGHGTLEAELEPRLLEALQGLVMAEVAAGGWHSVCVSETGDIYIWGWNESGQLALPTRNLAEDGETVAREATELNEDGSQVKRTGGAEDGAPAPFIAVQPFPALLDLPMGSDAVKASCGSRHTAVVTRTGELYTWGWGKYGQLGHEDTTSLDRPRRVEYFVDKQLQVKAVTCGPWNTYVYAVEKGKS
# UniProt Q9NW64: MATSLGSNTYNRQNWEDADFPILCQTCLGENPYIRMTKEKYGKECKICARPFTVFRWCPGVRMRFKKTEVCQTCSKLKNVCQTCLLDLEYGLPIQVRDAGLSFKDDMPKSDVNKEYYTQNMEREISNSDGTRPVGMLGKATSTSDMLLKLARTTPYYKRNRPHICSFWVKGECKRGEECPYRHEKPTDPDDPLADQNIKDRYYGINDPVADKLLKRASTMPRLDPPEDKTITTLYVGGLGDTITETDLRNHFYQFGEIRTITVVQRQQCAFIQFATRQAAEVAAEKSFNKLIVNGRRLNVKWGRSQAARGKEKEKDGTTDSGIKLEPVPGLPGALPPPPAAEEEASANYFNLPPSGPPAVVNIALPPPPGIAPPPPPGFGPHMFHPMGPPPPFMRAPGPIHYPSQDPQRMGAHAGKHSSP
# UniProt Q9P258, whole entry, looked up: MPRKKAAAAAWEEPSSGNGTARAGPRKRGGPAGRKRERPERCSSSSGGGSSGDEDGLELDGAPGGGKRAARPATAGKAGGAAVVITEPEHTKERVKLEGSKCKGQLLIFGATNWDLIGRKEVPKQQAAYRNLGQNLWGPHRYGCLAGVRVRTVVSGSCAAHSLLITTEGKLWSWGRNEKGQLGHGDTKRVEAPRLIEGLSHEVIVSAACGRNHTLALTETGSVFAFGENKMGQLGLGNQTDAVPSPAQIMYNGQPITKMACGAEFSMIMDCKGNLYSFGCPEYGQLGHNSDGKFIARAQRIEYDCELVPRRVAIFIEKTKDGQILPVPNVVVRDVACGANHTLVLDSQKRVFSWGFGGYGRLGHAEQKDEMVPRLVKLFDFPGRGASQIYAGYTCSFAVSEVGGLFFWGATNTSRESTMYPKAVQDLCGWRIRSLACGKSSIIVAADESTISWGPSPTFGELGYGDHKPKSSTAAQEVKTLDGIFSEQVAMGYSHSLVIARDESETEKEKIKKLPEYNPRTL
# UniProt P46060: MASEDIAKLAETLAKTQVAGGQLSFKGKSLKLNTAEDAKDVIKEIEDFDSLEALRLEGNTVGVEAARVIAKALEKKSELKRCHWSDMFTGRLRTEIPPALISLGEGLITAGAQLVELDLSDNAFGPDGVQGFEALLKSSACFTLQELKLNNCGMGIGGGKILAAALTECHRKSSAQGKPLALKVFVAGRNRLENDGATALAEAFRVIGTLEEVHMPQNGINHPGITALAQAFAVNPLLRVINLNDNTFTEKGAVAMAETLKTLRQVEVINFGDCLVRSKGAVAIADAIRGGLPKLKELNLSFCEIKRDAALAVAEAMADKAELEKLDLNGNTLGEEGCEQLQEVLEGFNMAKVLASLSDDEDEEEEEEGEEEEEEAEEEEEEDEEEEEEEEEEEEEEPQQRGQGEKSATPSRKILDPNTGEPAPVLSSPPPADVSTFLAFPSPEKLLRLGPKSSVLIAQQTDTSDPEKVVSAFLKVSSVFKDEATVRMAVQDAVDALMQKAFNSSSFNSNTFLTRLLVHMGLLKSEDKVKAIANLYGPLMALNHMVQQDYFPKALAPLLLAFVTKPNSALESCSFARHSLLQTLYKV
# UniProt Q684P5: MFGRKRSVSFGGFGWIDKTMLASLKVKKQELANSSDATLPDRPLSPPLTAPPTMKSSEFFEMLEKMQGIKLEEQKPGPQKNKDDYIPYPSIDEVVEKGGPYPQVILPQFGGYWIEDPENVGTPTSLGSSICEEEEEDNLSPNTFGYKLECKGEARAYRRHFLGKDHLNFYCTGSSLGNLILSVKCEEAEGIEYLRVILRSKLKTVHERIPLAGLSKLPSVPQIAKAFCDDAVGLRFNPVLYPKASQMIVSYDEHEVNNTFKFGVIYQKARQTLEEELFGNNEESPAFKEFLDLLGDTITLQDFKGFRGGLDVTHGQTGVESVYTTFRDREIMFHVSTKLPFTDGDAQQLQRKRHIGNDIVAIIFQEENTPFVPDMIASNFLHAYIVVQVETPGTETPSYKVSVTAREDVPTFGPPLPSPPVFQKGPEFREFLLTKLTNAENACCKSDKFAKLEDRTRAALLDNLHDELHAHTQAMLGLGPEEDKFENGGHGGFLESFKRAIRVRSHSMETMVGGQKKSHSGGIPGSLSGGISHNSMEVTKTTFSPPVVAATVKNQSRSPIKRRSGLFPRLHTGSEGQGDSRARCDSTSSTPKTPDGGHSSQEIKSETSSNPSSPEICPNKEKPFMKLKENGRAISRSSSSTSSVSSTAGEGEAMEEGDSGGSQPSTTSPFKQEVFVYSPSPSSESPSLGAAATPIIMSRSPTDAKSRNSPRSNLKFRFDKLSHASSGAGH
# UniProt Q9Y2P8: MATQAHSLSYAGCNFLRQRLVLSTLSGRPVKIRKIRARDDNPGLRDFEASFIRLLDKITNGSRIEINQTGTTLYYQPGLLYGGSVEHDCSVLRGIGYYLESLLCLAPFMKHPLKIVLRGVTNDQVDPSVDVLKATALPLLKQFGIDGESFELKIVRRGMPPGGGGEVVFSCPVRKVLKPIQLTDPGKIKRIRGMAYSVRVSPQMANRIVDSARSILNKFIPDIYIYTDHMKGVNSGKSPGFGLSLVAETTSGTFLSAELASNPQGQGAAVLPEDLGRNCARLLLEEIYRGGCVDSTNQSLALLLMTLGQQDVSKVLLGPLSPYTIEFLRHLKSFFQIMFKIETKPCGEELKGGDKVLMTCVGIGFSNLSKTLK
# UniProt P52306: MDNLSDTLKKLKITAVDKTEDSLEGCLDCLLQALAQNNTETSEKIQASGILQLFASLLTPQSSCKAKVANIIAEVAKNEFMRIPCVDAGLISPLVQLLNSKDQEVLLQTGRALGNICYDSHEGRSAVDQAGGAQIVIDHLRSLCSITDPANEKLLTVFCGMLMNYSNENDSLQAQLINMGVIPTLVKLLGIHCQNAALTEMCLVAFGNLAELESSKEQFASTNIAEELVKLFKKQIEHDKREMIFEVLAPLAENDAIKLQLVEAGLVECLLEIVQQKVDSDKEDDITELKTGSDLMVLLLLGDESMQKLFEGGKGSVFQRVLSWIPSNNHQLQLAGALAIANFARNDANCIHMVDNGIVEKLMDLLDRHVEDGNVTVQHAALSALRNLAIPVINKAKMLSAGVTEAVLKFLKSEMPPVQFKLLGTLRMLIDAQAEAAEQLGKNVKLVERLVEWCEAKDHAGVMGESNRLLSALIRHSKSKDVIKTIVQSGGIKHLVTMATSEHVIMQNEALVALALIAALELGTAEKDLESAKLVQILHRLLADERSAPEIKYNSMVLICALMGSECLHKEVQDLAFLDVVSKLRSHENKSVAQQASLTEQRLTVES
# UniProt Q9H477: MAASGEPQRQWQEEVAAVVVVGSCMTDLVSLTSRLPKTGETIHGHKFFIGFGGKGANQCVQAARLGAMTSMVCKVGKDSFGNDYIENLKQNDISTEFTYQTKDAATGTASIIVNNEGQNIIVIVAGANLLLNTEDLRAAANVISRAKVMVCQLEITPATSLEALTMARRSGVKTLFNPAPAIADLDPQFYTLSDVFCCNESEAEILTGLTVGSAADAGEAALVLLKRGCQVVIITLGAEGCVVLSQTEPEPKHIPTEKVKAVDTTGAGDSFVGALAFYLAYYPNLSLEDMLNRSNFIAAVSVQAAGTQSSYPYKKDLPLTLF
# UniProt Q9UJF2: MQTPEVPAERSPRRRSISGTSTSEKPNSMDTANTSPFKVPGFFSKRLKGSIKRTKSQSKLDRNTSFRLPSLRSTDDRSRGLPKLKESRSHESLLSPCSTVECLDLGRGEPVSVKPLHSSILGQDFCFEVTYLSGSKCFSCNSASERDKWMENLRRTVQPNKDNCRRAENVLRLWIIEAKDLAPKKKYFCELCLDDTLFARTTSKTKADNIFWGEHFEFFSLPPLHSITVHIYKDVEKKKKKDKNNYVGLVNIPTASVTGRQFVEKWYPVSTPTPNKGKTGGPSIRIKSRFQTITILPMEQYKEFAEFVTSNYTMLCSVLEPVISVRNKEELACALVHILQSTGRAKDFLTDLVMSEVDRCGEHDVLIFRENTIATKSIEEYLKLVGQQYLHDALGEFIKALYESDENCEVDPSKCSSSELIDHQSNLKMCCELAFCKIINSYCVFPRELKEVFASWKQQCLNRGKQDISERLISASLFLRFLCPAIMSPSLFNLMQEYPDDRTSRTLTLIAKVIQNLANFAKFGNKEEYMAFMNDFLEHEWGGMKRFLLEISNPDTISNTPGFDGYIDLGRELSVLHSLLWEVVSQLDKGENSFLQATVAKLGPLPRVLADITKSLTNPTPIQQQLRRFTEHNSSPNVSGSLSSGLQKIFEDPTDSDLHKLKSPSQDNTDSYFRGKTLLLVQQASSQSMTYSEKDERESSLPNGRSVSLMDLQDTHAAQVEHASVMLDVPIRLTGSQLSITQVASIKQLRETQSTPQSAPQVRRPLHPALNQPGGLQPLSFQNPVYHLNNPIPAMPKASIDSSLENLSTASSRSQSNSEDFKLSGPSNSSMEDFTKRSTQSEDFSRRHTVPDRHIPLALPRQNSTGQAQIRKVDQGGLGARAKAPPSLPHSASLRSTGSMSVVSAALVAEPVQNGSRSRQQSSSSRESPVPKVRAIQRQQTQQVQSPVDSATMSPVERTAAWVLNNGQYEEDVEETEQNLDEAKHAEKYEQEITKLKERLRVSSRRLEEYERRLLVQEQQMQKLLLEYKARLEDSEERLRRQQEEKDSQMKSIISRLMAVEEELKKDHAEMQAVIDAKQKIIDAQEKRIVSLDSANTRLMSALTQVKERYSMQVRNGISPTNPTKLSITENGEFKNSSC
# UniProt Q9UKA8, whole entry: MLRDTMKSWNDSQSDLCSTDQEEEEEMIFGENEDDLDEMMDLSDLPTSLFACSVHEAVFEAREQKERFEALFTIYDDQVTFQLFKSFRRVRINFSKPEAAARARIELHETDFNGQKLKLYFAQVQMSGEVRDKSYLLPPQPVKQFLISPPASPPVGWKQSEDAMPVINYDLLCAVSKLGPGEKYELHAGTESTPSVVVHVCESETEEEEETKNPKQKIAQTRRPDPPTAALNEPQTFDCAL
# UniProt P18754: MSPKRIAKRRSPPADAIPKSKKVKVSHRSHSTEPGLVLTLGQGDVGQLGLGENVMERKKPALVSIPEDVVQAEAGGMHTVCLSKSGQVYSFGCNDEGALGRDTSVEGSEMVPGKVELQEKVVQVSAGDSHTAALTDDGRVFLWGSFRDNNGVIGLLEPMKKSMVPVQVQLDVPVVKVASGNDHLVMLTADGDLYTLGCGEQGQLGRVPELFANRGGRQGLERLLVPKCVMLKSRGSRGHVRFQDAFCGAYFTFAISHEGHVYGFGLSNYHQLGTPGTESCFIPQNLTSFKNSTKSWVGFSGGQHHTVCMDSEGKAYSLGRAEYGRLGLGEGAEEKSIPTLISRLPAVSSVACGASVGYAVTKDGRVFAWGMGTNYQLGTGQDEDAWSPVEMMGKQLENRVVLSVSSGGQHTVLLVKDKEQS
# The list shows a part of the results.
# Compound: CC1Cc2ccccc2N1C(=O)C1CCCN(C1)C(=O)CCl (mixture of isomers) [TRIM25 ligand 11 (diastereomer mixture)]
# Experiment: probe-labelled cysteine peptide fold change vs DMSO (competition) (log2 fold change); higher = less target engagement (more negative = stronger competition)
# Details: THP-1, incubation time: 4 h
# 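Note: competitive chemoproteomic profiling in live THP-1 cells with an iodoacetamide desthiobiotin (IA-DTB) probe, comparing probe-labelled peptide intensities in compound-treated cells against DMSO-treated controls.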
Target,probe-labelled cysteine peptide fold change (10 µM),probe-labelled cysteine peptide fold change (50 µM)
RCCD1_A6NED2_139_LPLLPCAR (UniProt A6NED2),-0.281,
RBM22_Q9NW64_269_QQCAFIQFATR (UniProt Q9NW64),0.178,0.214
RCC2_Q9P258_280_GNLYSFGCPEYGQLGHNSDGK (UniProt Q9P258),0.288,-0.207
RANGAP1_P46060_169_ILAAALTECHR (UniProt P46060),-0.0272,-0.0338
RAP1GAP2_Q684P5_584_CDSTSSTPK (UniProt Q684P5),-0.0122,0.00393
RCL1_Q9Y2P8_13_ATQAHSLSYAGCNFLR (UniProt Q9Y2P8),0.344,0.223
RBBP6_Q7Z6E9_44_AADCDLQITNAQTK (UniProt Q7Z6E9),-0.0128,-0.173
RAP1GDS1_P52306_454_LVEWCEAK (UniProt P52306),0.0696,-0.0124
RCC2_Q9P258_337_DVACGANHTLVLDSQKR (UniProt Q9P258),-0.0188,0.0275
RBM27_Q9P2N5_776_LGHAGGNQSDASHLLNQSGGAGEDCQIFSTPGHPK (UniProt Q9P2N5),-0.0105,-0.127
RBKS_Q9H477_73_LGAMTSMVCK (UniProt Q9H477),-0.178,-0.156
RASAL2_Q9UJF2_360_CGEHDVLIFR (UniProt Q9UJF2),0.0414,0.0685
RCAN3_Q9UKA8_173_QSEDAMPVINYDLLCAVSK (UniProt Q9UKA8),-0.26,0.0714
RCC1_P18754_81_KKPALVSIPEDVVQAEAGGMHTVCLSK (UniProt P18754),-0.0603,0.0589

# Retrieved one by one from the entries so far, 2 records:
Target,probe-labelled cysteine peptide fold change (10 µM),probe-labelled cysteine peptide fold change (50 µM)
RBM22_Q9NW64_269_QQCAFIQFATR (UniProt Q9NW64),0.178,0.214
RAP1GDS1_P52306_454_LVEWCEAK (UniProt P52306),0.0696,-0.0124
